For some of these results: For at least one compound, name, drawing or mass did not settle the structure. Some of these results come from one statement about several compounds together.
B1: thrombopoietin (protein)
chain: SPAPPACDLRVLSKLLRDSHVLHSRLSQCPEVHPLPTPVLLPAVDFSLGEWKTQMEETKAQDILGAVTLLLEGVMAARGQLGPTCLSSLLGQLSGQVRLLLGALQSLLGTQLPPQGRTTAHKDPNAIFLSFQHLLRGKVRFLMLVGGSTLCVRRAPPTTAVPSRTSLVLTLNEL
notes: recombinant human thrombopoietin, ligand of c-MPL

How the values were obtained:
[1] = system: BV173 leukemia cells; experiment: Serial (sequential) co-culture with BV173 leukemia cells; type: cell-based, human; settings: for repetitive killing capacity of TCR+c-MPL+ T cells: E:T 1:5, BV173 added back every 3-4 days up to eight times
Method: (§1) Cells were stained ith antibodies and analyzed by flow cytometry. Cells were stained with FITC-, phycoerythrin- (PE-), peridinin chlorophyll protein-(PerCP-), or allophycocyanin-conjugated (APC-conjugated) antibodies (Abs) against CD3, CD4, CD8, CD110 (c-MPL), murine TCR constant region (mCβ, ebioscience), CD19, or CD138. Cell viability was assessed by 7-AAD staining. T cells and tumor cell populations from co-culture assays were quantified by adding CountBright Beads (Invitrogen) to the analysis. T cell memory marker expression on CD8+ T cells re-covered from co-cultures was analyzed by staining cells with FITC-, PE-, ECD-, PerCP-, APC-, APC-AF750, or V450-conjugated Abs against CD45RO, CD45RA, CD62L, CCR7, CD110, mCβ, CD19, and 7AAD. Intracellular staining for phosphoproteins pSTAT3 and pSTAT5 was performed with PE- and Pacific Blue-conjugated Abs and Phosflow reagents (BD). To assess cell proliferation, cells were labeled with Carboxyfluorescein succinimidyl ester (CFSE, ThermoFisher) and analyzed after 7 days of culture. All antibodies were purchased from BD or Beckman Coulter unless otherwise indicated, and all staining procedures were performed according to the manufacturer's recommendation. Data acquisition was performed on a BD FACSCalibur using CellQuest software or a Beckman Coulter Gallios flow cytometer using Kaluza software. Data analysis was performed with FlowJo software (Tree Star Inc.).
BV173 or U266B1 cells and T cells were co-cultured in up to eight replicate wells at various E:T ratios in CTL media with no cytokines, rhTPO (5 ng/mL or 50 ng/mL), or EP (0.1 μg/mL). […] Co-culture supernatants were harvested 24 hours after initial plating or tumor-cell add-back to replicate wells and stored at −80° C. for further analysis.

[2] = system: c-MPL+ T cells; experiment: EP dose-titration, T cell expansion on OKT3/CD28-coated plates; type: cell-based, human; settings: 7 days
Method: Similar results were obtained with the TPO small molecule agonist EP. A dose-titration experiment was used to determine the optimal concentration of EP to support c-MPL+ T cell expansion (FIG. 2C). EP was previously shown to inhibit leukemia cell proliferation at higher concentrations (1-10 μg/ml) by reduction of intracellular iron, a c-MPL independent effect (Roth et al., 2012). NT or c-MPL+ T cells were re-activated on OKT3/CD28-coated plates in the presence of different EP concentrations and expansion of viable T cells was determined after 7 days. […] Thus, the effective EP concentration for c-MPL+ T cells was about 1 log lower than in previous reports assessing effects of EP on megakaryocytic progenitor cells or leukemia cells *Roth et al., 2012; Will et al., 2009). To assess c-MPL ligand-dependent signaling in TCR+c-MPL+ T cells, cells were left untreated (noCK) or treated with TPO50 or EP for 1 (left) or 24 hours (right). […] Next, it was evaluated whether rhTPO enhanced the anti-tumor function of TCR+c-MPL+ T cells using two different HLA-A*0201+survivin+hematologic malignancies as targets (U266 multiple myeloma, BV173 leukemia) (FIGS. 2E-2F). […] Again, addition of IL2 led to significant but antigen-independent enhancement of T cell expansion.

[3] = system: leukemia cell; settings: c-MPL independent effect, reduction of intracellular iron; cited from earlier work
[4] = system: HL-60 AML cells; settings: EP 3 μg/ml; cited from earlier work
[5] = system: TCR+c-MPL+ T cells; experiment: RNA-sequencing and GSEA of sequential killer T cells; type: cell-based, human; settings: after 3 BV173 challenges, rhTPO 50 ng/mL or EP 0.1 μg/mL
Description: Total RNA was extracted from T cells of 3 independent donors, purified after sequential co-culture in no cytokine, rhTPO or EP (see above and FIG. 4A) using the RNeasy Mini Kit (Qiagen). T cell purification consisted of either dead cell removal alone (see above) or dead cell removal followed by FACS sorting (FACS Aria, BD, Flow Cytometry Core Laboratory at the Texas Children's Hospital Feigin Center), to achieve a >98% T cell purity and T cell viability of >90%. Total RNA samples were sent to GENEWIZ for library preparation and next generation sequencing, with 30 million reads per sample at a 1×50 base pair configuration.
RNA-Seq was performed in triplicates from 3 independent donors for all 3 conditions (control, rhTPO and EP; see main text). Fastq files were aligned to the transcriptome using HiSat2 with default parameters (Kim et al., 2015). Following alignment and quality control analysis, one replicate of the control dataset was removed due to poor signal to noise ratio. Transcripts were assembled and FPKM values were generated using cuffquant and cuffnorm from the cufflinks software suite (Trapnell et al., 2010) Active transcripts were defined as transcripts with a normalized FPKM value greater than 1 in at least one sample. […]

[6] = system: c-MPL downstream signaling in c-MPL+ T cells; experiment: Phosflow for pSTAT5, c-MPL downstream signaling; type: cell-based, human; settings: rhTPO 5 and 50 ng/ml; EP 0.1 μg/ml; 1 or 24 hours
Method: as §1, with “Data analysis was performed with FlowJo software (Tree Star Inc.).” left out

[7] = system: c-MPL+ cells; experiment: c-MPL ligand-dependent STAT3/STAT5 phosphorylation in TCR+c-MPL+ T cells; type: cell-based, human; settings: TPO 50 ng/ml or EP 0.1 μg/ml, 1 or 24 hours; c-MPL- cells did not
Method: Similar results were obtained with the TPO small molecule agonist EP. A dose-titration experiment was used to determine the optimal concentration of EP to support c-MPL+ T cell expansion (FIG. 2C). EP was previously shown to inhibit leukemia cell proliferation at higher concentrations (1-10 μg/ml) by reduction of intracellular iron, a c-MPL independent effect (Roth et al., 2012). NT or c-MPL+ T cells were re-activated on OKT3/CD28-coated plates in the presence of different EP concentrations and expansion of viable T cells was determined after 7 days. […] Next, it was evaluated whether rhTPO enhanced the anti-tumor function of TCR+c-MPL+ T cells using two different HLA-A*0201+survivin+hematologic malignancies as targets (U266 multiple myeloma, BV173 leukemia) (FIGS. 2E-2F). […]
Cells were stained ith antibodies and analyzed by flow cytometry. […] Cell viability was assessed by 7-AAD staining. T cells and tumor cell populations from co-culture assays were quantified by adding CountBright Beads (Invitrogen) to the analysis. T cell memory marker expression on CD8+ T cells re-covered from co-cultures was analyzed by staining cells with FITC-, PE-, ECD-, PerCP-, APC-, APC-AF750, or V450-conjugated Abs against CD45RO, CD45RA, CD62L, CCR7, CD110, mCβ, CD19, and 7AAD. […]

[8] = system: T cells; experiment: Growth factor-independent T cell growth / survival in culture; type: cell-based; settings: n=3 donors

Molecule | repetitive killing capacity of TCR+c-MPL+ T cells [1] | T cell expansion in serial co-culture ([1]; E:T 1:5, versus no cytokines) | CD45RA+CD45RO+ and central memory cells among persistent T cells ([1]; serial co-culture) | Th1 cytokine production in sequential co-cultures ([1]; supernatants 24 hours after tumor cell challenge) | effect of EP levels lower than 0.1 μg/ml [2] | EP concentrations inhibiting leukemia cell proliferation [3] [µg/mL] | gene expression in HL-60 AML cells treated with EP [4] | cell cycle associated genes in T cells from treated co-cultures versus controls [5] | STAT5 phosphorylation in c-MPL+ T cells [6] | STAT3 and STAT5 phosphorylation in c-MPL+ cells [7] | T cell survival in culture, starting 10 days after polyclonal activation and transduction ([8]; IL2 25 U/ml (any T cells), TPO 50 ng/ml (c-MPL transgenic T cells only)) [days] | TCR+c-MPL+ T cell survival in culture after three BV173 challenges ([8]; IL2 25 U/ml or TPO 50 ng/ml after antigen withdrawal) [days]
CC1=NN(c2ccc(C)c(C)c2)C(=O)/C1=N\Nc1cccc(-c2cccc(C(=O)O)c2)c1O [EP, eltrombopag, reference compound] | up to 8 times | significantly enhanced | enrichment | sustained | did not show c-MPL-dependent effects | 1 to 10 | down-regulation of cell cycle-associated genes with a block in the G1 phase of cell cycle | upregulated | occurred | phosphorylated | – | –
B1 | up to 8 times | – | – | – | – | – | – | – | – | – | > 10 | > 10

Reference: patent US20200016207A1, “[…] c-MPL PROVIDES LIGAND-DEPENDENT CO-STIMULATION AND CYTOKINE SIGNALS TO TCR-ENGINEERED T CELLS” (Baylor College of Medicine, priority 2017, published 2020)
